Data as given in PubChem BioAssay AID1053209 (Peter MacCallum Cancer Centre, 2014).
Purpose: 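Knock-downs that sensitise mouse osteosarcoma cells to doxorubicin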 (follow-up of hits). Cells: mouse primary osteosarcoma cells. Reagents: single siRNA against mouse genes, 25 nM (text also states 40 nM). Timing: about 120 h (48 h before drug, then 72 h with drug). Conditions: doxorubicin 100 nM (about IC30-40), added 48 h after transfection, for 72 h. Detection: 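Viability measured by ATP luminescence with and without doxorubicin, each replicate scaled to non-targeting siRNA NT1, averaged over two replicates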. Reading the numbers: viability with doxorubicin, vs NT1: higher = more viable cells under doxorubicin; viability without drug, vs NT1: higher = more viable cells without drug. Call rule: 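Counted as active (class LC dox) if viability falls to 0.7 of NT1 or below under doxorubicin but stays within 0.7 to 1.1 without drug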.
The whole screen tested about 1,580 reagents; this is an unselected part. Of all reagents, 207 (13%) are marked active. 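Rows are single siRNAs; four siRNAs per gene were tested, a gene counting as confirmed only when at least two agree.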 Unmarked entries are inactive. The numbers tell different reagents against one gene apart. Not all columns of the deposit are shown. No sequences are given here.

Alyref2 #1
- combined effect class: low viability with and without drug
- viability with doxorubicin, vs NT1: 0.16
- viability without drug, vs NT1: 0.27

Alyref2 #2
- combined effect class: normal viability with and without drug
- viability with doxorubicin, vs NT1: 0.93
- viability without drug, vs NT1: 0.86

Alyref2 #3
- combined effect class: low viability with and without drug
- viability with doxorubicin, vs NT1: 0.24
- viability without drug, vs NT1: 0.38

Alyref2 #4
- combined effect class: normal viability with and without drug
- viability with doxorubicin, vs NT1: 1
- viability without drug, vs NT1: 0.83

Only “combined effect class”, for 2 of the entries above:
Alyref2 #3 = low viability with and without drug
Alyref2 #4 = normal viability with and without drug

Continued:
Kmt5a #1
- combined effect class: normal viability with and without drug
- viability with doxorubicin, vs NT1: 0.83
- viability without drug, vs NT1: 0.91

Kmt5a #2
- combined effect class: normal viability with and without drug
- viability with doxorubicin, vs NT1: 0.9
- viability without drug, vs NT1: 0.9

Kmt5a #3
- combined effect class: low viability with and without drug
- viability with doxorubicin, vs NT1: 0.25
- viability without drug, vs NT1: 0.46

Kmt5a #4
- combined effect class: normal viability with and without drug
- viability with doxorubicin, vs NT1: 1.01
- viability without drug, vs NT1: 1.03

Ist1 #1
- combined effect class: low viability only with doxorubicin; normal without drug (active)
- viability with doxorubicin, vs NT1: 0.69
- viability without drug, vs NT1: 0.89

Ist1 #2
- combined effect class: normal viability with and without drug
- viability with doxorubicin, vs NT1: 0.92
- viability without drug, vs NT1: 0.97

Ist1 #3
- combined effect class: normal viability with and without drug
- viability with doxorubicin, vs NT1: 0.9
- viability without drug, vs NT1: 0.85

Ist1 #4
- combined effect class: low viability only with doxorubicin; normal without drug (active)
- viability with doxorubicin, vs NT1: 0.45
- viability without drug, vs NT1: 0.74
